For experiment [1], the target named is Histone deacetylase 7 (HDAC7), wild type (mouse) (UniProt Q8C2B3). Nature of the experiment: co-IP; NMCMs transfected with Hdac7 adenoviruses; Pierce IP Lysis Buffer, 1 mg whole lysate; magnetic beads with mouse FLAG antibody, overnight incubation; immunoblot with HDAC7, MEF2D, MCM3, MCM5 and MCM7 antibodies.
For experiment [2] the target is unchanged. The experiment is described as above. The source holds these as a separate data set.

By UniProt entry, the sequences of proteins in these tests, tags left out.
UniProt Q8C2B3: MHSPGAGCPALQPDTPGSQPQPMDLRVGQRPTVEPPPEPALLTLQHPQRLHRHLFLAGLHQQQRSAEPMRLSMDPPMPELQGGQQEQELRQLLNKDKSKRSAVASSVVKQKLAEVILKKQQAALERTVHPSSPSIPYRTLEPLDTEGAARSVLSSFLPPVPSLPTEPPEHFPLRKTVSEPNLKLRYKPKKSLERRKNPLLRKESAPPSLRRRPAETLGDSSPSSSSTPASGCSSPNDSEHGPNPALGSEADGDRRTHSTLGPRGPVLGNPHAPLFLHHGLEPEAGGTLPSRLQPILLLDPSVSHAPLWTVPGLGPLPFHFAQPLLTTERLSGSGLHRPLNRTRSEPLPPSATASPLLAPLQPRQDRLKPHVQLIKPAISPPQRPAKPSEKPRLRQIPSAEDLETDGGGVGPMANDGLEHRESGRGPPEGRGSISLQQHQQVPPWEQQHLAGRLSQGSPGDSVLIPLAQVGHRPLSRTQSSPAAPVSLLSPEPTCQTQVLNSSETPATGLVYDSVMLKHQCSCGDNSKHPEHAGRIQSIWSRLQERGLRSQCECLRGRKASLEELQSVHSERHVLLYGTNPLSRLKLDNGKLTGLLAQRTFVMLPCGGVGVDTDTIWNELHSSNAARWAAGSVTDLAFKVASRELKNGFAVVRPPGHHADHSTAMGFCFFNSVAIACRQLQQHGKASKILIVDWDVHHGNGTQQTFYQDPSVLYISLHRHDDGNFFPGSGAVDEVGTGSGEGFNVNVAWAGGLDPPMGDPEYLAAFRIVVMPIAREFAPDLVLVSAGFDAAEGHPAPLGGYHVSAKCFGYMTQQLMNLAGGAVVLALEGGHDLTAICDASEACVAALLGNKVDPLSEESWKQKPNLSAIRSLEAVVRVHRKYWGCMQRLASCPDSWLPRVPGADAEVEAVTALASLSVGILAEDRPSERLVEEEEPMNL
UniProt Q61881: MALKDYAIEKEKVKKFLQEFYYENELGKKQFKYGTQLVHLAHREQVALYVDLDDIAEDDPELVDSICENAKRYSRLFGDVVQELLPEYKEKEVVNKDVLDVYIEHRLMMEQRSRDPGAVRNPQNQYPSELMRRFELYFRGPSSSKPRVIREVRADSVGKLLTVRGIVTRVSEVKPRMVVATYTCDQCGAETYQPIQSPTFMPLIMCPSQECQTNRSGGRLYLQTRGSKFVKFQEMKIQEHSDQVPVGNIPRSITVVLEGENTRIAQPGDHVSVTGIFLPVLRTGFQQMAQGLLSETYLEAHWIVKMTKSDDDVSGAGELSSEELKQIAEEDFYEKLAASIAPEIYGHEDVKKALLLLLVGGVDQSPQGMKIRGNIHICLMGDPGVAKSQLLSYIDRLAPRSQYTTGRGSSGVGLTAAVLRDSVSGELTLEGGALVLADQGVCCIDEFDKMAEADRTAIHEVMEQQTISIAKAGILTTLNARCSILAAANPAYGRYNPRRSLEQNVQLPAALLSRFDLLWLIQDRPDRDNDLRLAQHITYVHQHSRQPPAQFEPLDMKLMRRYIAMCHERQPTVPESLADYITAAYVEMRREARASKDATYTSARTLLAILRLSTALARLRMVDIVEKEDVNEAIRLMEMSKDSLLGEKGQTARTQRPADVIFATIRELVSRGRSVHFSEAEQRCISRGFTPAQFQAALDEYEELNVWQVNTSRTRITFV

The values that follow come from article PMC12059635.

Read-outs that look alike come from different tables or passages of the source. These are yes or no findings as the source states them, for the method shown. Binding seen in cells or lysates may run through a third protein. Some entries that bind do so weakly or less than the wild type.

For “Minichromosome maintenance protein 7 (MCM7) (from UniProt Q61881 1-719)”, the binding entry in experiment [1] was “binds”.

B1: MCM3 (protein, UniProt P25206 1-812)
chain: MAGTVVLDDVELREAQRDYLDFLDDEEDQGIYQNKVRELISDNQYRLIVSVNDLRRKNEKRANRLLNNAFEELVAFQRALKDFVASIDATYAKQYEEFYIGLEGSFGSKHVSPRTLTSCFLSCVVCVEGIVTKCSLVRPKVVRSVHYCPATKKTIERRYSDLTTLVAFPSSSVYPTKDEENNPLETEYGLSVYKDHQTITIQEMPEKAPAGQLPRSVDVILDDDLVDKVKPGDRIQVVGTYRCLPGKKGCYTSGTFRTVLIACNVKQMSKDIQPAFSADDIAKIKKFSKTRSKDVFEQLARSLAPSIHGHDYVKKAILCLLLGGVERELENGSHIRGDINILLIGDPSVAKSQLLRYVLCTAPRAIPTTGRGSSGVGLTAAVTTDQETGERRLEAGAMVLADRGVVCIDEFDKMSDMDRTAIHEVMEQGRVTIAKAGIHARLNARCSVLAAANPVYGRYDQYKTPMENIGLQDSLLSRFDLLFIMLDQMDPEQDREISDHVLRMHQYRAPGEQDGDALPLGSSVDILATDDPDFTQDDQQDTRIYEKHDSLLHGTKKKKEKMVSAAFMKKYIHVAKIIKPTLTQESAAYIAEEYSRLRSQDSMSSDTARTSPVTARTLETLIRLATAHAKARMSKTVDLQDAEEAVELVQYAYFKKVLEKEKKRKKASEDESDLEDEEEKSQEDTEQKRKRRKTHAKDGESYDPYDFSEAETQMPQVHTPKTDDSQEKTDDSQETQDSQKVELSEPRLKAFKAALLEVFQEAHEQSVGMLHLTESINRNREEPFSSEEIQACLSRMQDDNQVMVSEGIVFLI
Take B1: the binding entry in experiment [2] was “binds”.

B2: MCM5 (protein, UniProt P49718 1-734)
chain: MSGFDDPGIFYSDSFGGDPGAEEGQARKSQLQRRFKEFLRQYRVGTDRTGFTFKYRDELKRHYNLGEYWIEVEMEDLASFDEELADHLHKQPAEHLQLLEEAAKEVADEVTRPRPAGDELLQDIQVMLKSDASPSSIRILKSDMMSHLVKIPGIIISASAVRAKATRISIQCRSCHNTLTNIAMRPGLEGYALPRKCNMDQAGRPKCPLDPYFIMPDKCKCVDFQTLKLQELPDAVPHGEMPRHMQLYCDRYLCDKVVPGNRVTIMGIYSIKKFGLNPSKGRDRVGVGIRSSYIRVLGIQVDTDGSGRSFAGSVSPQEEEEFRRLAALPNIYELISKSISPSIFGGMDMKKAIACLLFGGSRKRLPDGLTRRGDINLLMLGDPGTAKSQLLKFVEKCSPIGVYTSGKGSSAAGLTASVIRDPSSRNFIMEGGAMVLADGGVVCIDEFDKMREDDRVAIHEAMEQQTISIAKAGITTTLNSRCSVLAAANSVFGRWDETKGEDNIDFMPTILSRFDMIFIVKDEHNEERDMMLAKHVMTLHVSALTQTQAVEGEIDLAKMKKFIAYCRARCGPRLSAEAAEKLKNRYIIMRSGARQHERDSDRRSSIPITVRQLEAIVRIAEALSKMKLQPFATEADVEEALRLFQVSTLDAALSGNLSGVEGFTTQEDQEMLSRIEKQLKRRFAIGSQVSEHSIVQDFTKQKYPEHAIRKVLQLMLRRGEIQHRMQRKVLYRLK
Regarding B2, in experiment [2], the binding result was “binds”.
